Data as given in patent publication US6455593B1, “Method of dynamic retardation of cell cycle kinetics to potentiate cell damage” (priority 1995, dated 2002).

System: U937 cells
Experiment: Delayed proliferation assay (MTT 48 hr after washing)
Details: Homo sapiens, U-937, 70 h, read-out: Maximum effective cytotoxicity (1-N/N0)
Method: Microcultures treated with an agent or agents for a defined period (exactly as in Example 8) were washed. Seventy-five percent of the well volume was removed without disturbing the sedimented cells, and medium was added to yield a ⅕ dilution. In three additional washes and cell sedimentations, 50% of the medium was replaced such that the original concentration of agents was reduced to <5%. The metabolic mass of cells surviving or proliferating at 48 hr after the washings, including the untreated control cells, was then assayed by the MTT method (total elapsed time of 70 hours).
As an adjunct to the delayed proliferative assay, we utilized an “immediate plate” to quantitate the cell mass at the beginning of the experiment (N0=original cell mass). It required no more than a single column of microwells filled with 50 μl of growth medium each, and aliquots of cells in 50 μl identical to those transferred to the usual “test plate”. The immediate plate was incubated at 37° C. to complete the MTT assay for the same time as used for the test plate (i.e. 3 hr). […]
Taking the mean final cell mass at 70 hours as N, positive percentages represent the % effective cytotoxicity (EC%) expressed as 1−N/N0 and converted to a percentage, in relation to concentration. […]

**Q.** How did the Emax at 0.175 µM turn out when `CN[C@@H]1C[C@H]2O[C@@](C)([C@@H]1OC)n1c3ccccc3c3c4c(c5c6ccccc6n2c5c31)C(=O)NC4` [STSP, staurosporine] was run?
**A.** Its Emax at 0.175 µM is roughly 85%.
